Experimental findings from the supplement of paper PMC12578635 are described below.

Structures are written as SMILES. ± gives the standard deviation of the averaged measurements. The list shows a part of the results. Single values are uncertain, as repeats are few or missing.

In this assay the test system is RAW 264.7 macrophages infected with S. aureus JE2-lux. Nature of the assay: host macrophage viability (CellTiter-Fluor) relative to DMSO vehicle; higher = more viable host cells. Conditions: 10 µM; treatment time 4 h; gentamicin 50 µg/ml.
In the case of `Cc1cc(Br)ccc1NS(=O)(=O)c1c[nH]c(=O)[nH]c1=O`, the host macrophage viability came to 117%. Take `CC(=O)c1ccc(C(=O)N(Cc2ccncc2)c2nc3c(C)ccc(Cl)c3s2)cc1`: the host macrophage viability turned out to be 106%.

`Cc1ccc(C)c(NC(=O)CS(=O)(=O)c2cn(C)c3ccccc23)c1`: the host macrophage viability amounted to 126%. Then `O=C(COc1ncnc2ccccc12)Nc1cccc(-c2csnn2)c1`, with 108%; and `CC(CNC(=O)Cn1c(-c2cccs2)cc2cccnc21)n1cncn1` (configuration not stated), with 124%.

As for `N#CC1=C(S)N(c2ccc(F)cc2)C(c2ccco2)NC1=O` (configuration not stated), the host macrophage viability was 112%. As to `COc1ccc2c(O)c(C(=O)NCCc3ccccc3)cnc2c1`, the host macrophage viability worked out at 108%. To `CC(Oc1ccccc1)C(=O)N1CCN=C1SCc1cccnc1` (configuration not stated) belongs 110 ± 4.8%. On to `Cc1cccc(NC(=O)CSc2nc3c(c(-c4ccco4)c2C#N)CCCC3)c1`, for which the host macrophage viability was 134%. For the molecule `Cc1cccc(-c2nc(N)n(C(=O)c3ccco3)n2)c1`, the host macrophage viability was 109%. For the molecule `CCOc1ccc(N2CC(NC(=O)Nc3ncccc3C)CC2=O)cc1` (configuration not stated), the host macrophage viability turned out to be 107%. As to `COc1cc(NC(=O)c2nn(C)c(C(F)(F)F)c2Cl)cc(OC)c1`, the host macrophage viability was determined as 118%. For the molecule `O=C1Cc2cc(NC(=O)c3ccccc3Br)ccc2N1`, the host macrophage viability turned out to be 116%. On to `CCC(SC1=Nc2ccccc2C2=NC(C(C)C)C(=O)N12)C(=O)Nc1ccc(OC)cc1OC` (configuration not stated), for which the host macrophage viability was found to be 98.2%. Regarding `NC(=O)CSc1ncnc2c1oc1ccccc12`, the host macrophage viability stood at 99.1%.

As for `Cc1ccc(Cl)cc1NC(=O)C(C)Sc1nc2ncccc2o1` (configuration not stated), the host macrophage viability turned out to be 127%.

`Cc1oc(-c2ccno2)cc1S(=O)(=O)Nc1ccc2c(c1)OCO2`: the host macrophage viability came out at 117%. `CC1(C)CC(=O)C2=C(C1)Nc1[nH]c(=O)[nH]c(=O)c1C2c1ccc(-c2cccc(C(F)(F)F)c2)o1` (configuration not stated): the host macrophage viability worked out at 124%.

On to `COc1cc2cc3c(N)c(C(=O)N4c5ccccc5CC4C)sc3nc2cc1OC` (configuration not stated), for which the host macrophage viability amounted to 116%.

As to `COCCn1c2ccccc2n2c(=O)n(CC(=O)NC3CCCC3)nc12`, the host macrophage viability was found to be 119%. Then `Cc1c(NC(=S)NCCc2ccccc2)c(=O)n(-c2ccccc2)n1C`, with 108%; and `CNC(=S)NCCc1cc2c(OC)ccc(OC)c2[nH]c1=O`, with 106 ± 5.3%. `C=CCn1c(SCC(=O)Nc2nccs2)nc2sc(C)c(C)c2c1=O`: the host macrophage viability was 118%. Then `Clc1ccc2nc(Nc3nc4cc5c(cc4s3)OCO5)sc2c1`, with 132 ± 17%. On to `CCCCCn1c(=S)[nH]c2cc(C(=O)NCc3ccc4c(c3)OCO4)ccc2c1=O`, for which the host macrophage viability stood at 108%.

Regarding `O=c1c2sc3ccccc3c2[nH]c(=S)n1CCc1c[nH]c2ccccc12`, the host macrophage viability came out at 124%. Then `Cc1cc(C(=O)CSc2nnc3ccccn23)c(C)n1Cc1ccccc1`, with 132%.

For the molecule `O=C(CSc1nnc2c(n1)[nH]c1ccc(Cl)cc12)NCc1ccc2c(c1)OCO2`, the host macrophage viability came to 106%.

As to `Cc1noc(C)c1CSc1ncnc2sc3c(c12)CCCC3`, the host macrophage viability amounted to 118 ± 7.8%. Take `Cc1cnc(C(=O)N2CCC(c3nc4c(c(N5CCCC5)n3)CCC4)CC2)cn1`: the host macrophage viability turned out to be 111%. Then `CC(=O)Nc1ccc(Nc2c3c(nc4ncnn24)CCC3)cc1`, with 103%.

As to `Cc1cc(C)c2c(n1)sc1c(=O)n(-c3ccc(C(=O)Nc4ccc(C)c(F)c4)cc3)cnc12`, the host macrophage viability came to 114%.

`Cc1c(-c2ccccc2)n[nH]c1C(=O)NC(c1ccccc1)c1cccnc1` (configuration not stated): the host macrophage viability was 113%. Consider `Cc1ccc(-c2cc3nc(C)cc(N4CCC(C(=O)Nc5ccc(F)c(F)c5)CC4)n3n2)cc1`, for which the host macrophage viability is 116%. `O=C(CCn1c(-c2ccncc2)cc2cccnc21)Nc1ccccc1F`: the host macrophage viability came to 101%. In the case of `COc1cc(OC)cc(-c2noc(Cn3c(=O)[nH]c4cc5c(cc4c3=O)OCO5)n2)c1`, the host macrophage viability was found to be 112%.

Take `O=c1nc(SCc2ccc([N+](=O)[O-])cc2)c2c(n1Cc1cccnc1)CCC2`: the host macrophage viability is 129%.

Regarding `CSc1nnc(C)c(=O)n1COC(=O)c1ccc2ccccc2c1`, the host macrophage viability came out at 103%. For the molecule `CCCc1cc(CNC(=O)C(C)N2C(=O)NC(C)(C)C2=O)on1` (configuration not stated), the host macrophage viability is 107%. Take `COc1cccc(C(=O)Oc2coc(CSc3ncccn3)cc2=O)c1`: the host macrophage viability came out at 108%.

In the case of `COC(=O)C1=C(C)Nc2nc(SCc3ccc([N+](=O)[O-])cc3)[nH]c(=O)c2C1c1cccnc1` (configuration not stated), the host macrophage viability is 114%. Regarding `CCNc1ncnc2c1c(-c1ccccc1)cn2-c1ccccc1`, the host macrophage viability was 121%. Regarding `Cc1nc2ccccc2c(=O)n1-c1cccc(NS(=O)(=O)c2ccc(F)c(C(F)(F)F)c2)c1`, the host macrophage viability turned out to be 121%. Regarding `COc1ccc(NC(=O)c2ccc(SCCN3CCCCC3)nc2)cc1OC`, the host macrophage viability worked out at 112%. As for `Cc1ccc(NC(=O)C(=O)NCc2ccc3c(c2)OCO3)cc1F`, the host macrophage viability amounted to 124%. To `CCCSc1nnc(NC(=O)c2cc(-c3ccc4c(c3)CC(C)O4)on2)s1` (configuration not stated) belongs 115%; to `COc1ccc(C2=C(C)C(N3CCC(C(=O)N4CCc5ccccc5C4)CC3)=NS2(=O)=O)cc1`, 123%; to `COc1ccc(Cl)cc1Nc1ncnc2c1c(C)c(C)n2-c1ccccc1`, 101%. Regarding `NC(=O)Cn1c2ccc([N+](=O)[O-])cc2c2cc([N+](=O)[O-])ccc21`, the host macrophage viability is 102%. Then `CC(=O)N1CCN(C2=NC(=O)/C(=C\c3cccc([N+](=O)[O-])c3)S2)CC1`, with 109%; and `COc1cc(OC)c(NC(=O)N2CCC(n3cnc4cccnc43)CC2)cc1Cl`, with 114%. For the molecule `O=S(=O)(Nc1cccc(-c2ccc(N3CCCC3)nn2)c1)c1cccnc1`, the host macrophage viability is 127%. `CS(=O)(=O)c1ccc(CC(=O)Nc2ncc(S(=O)(=O)c3ccc([N+](=O)[O-])cc3)s2)cc1`: the host macrophage viability worked out at 108%. Consider `O=C(NCc1nnnn1-c1ccc(Cl)cc1)c1ccc(-c2ccccc2)cc1`, for which the host macrophage viability was determined as 130%. As for `C=CCn1c(Sc2nc(C)cs2)nc2c1c(=O)[nH]c(=O)n2C`, the host macrophage viability turned out to be 121%. With `O=C(NCCS(=O)(=O)N1CCCCC1)c1ccccc1`, the host macrophage viability was 118%. On to `Cc1ccc(C(=O)Nc2c(C#N)[nH]c3sc4c(c23)CCCC4)cc1`, for which the host macrophage viability was determined as 110%. For the molecule `CC(Sc1nnc2c(n1)[nH]c1ccccc12)C(=O)NC(c1ccccc1)c1ccccc1` (configuration not stated), the host macrophage viability was found to be 118%. Consider `N#Cc1c(NC(=O)CS(=O)(=O)c2ccccc2)sc2c1CCCCC2`, for which the host macrophage viability stood at 113%.

In the case of `O=C(CSc1ncccn1)Nc1ccc(C(=O)N2CCOCC2)cc1`, the host macrophage viability was found to be 121%. Take `N#Cc1c(NC(=O)CSc2nnc3c(n2)-c2cccc4cccc-3c24)sc2c1CCCC2`: the host macrophage viability was found to be 105%. To `O=C(CCc1nnc2n(Cc3ccc(Cl)cc3)c(=O)c3ccccc3n12)NCc1cccnc1` belongs 133%; to `CCOc1ccc(-n2c(-c3ccccc3)cn3c4c(=O)n(CC(N)=O)c(=O)n(C)c4nc23)cc1`, 122%; to `COc1cccc(Cn2c(C3CC3)nc3ccc(NC(=O)c4ccncc4)cc3c2=O)c1`, 97.6%. Consider `O=C(CN1C(=O)/C(=C2\NC(=S)NC2=O)c2ccccc21)Nc1cccc(Cl)c1`, for which the host macrophage viability turned out to be 117%. Take `O=C(CC1CCN(C(=O)c2cc3ccccc3[nH]2)CC1)NCc1ccc2c(c1)OCO2`: the host macrophage viability was 105%. Regarding `CCc1ccc2c(c1)[C@H]1OCC[C@H]1C(c1ccc(C(=O)O)cc1)N2` (some centres not stated), the host macrophage viability stood at 135%.

With `C=CCc1cccc2cc(C(=O)Nc3cc(C)ccc3C)c(=O)oc12`, the host macrophage viability is 122%. In the case of `O=c1[nH]c2cc3ccccc3c(=O)n2c2sc3c(c12)CCCC3`, the host macrophage viability came to 138%. Then `CC(=O)NCCNc1nc2c(c(=O)n(C)c(=O)n2C)n1CC(=O)Nc1ccccc1C`, with 99.8%; and `COCCNC(=O)C1c2ccccc2C(=O)N1Cc1ccc(F)cc1` (configuration not stated), with 105%. To `CC(Cc1cccs1)NC(=O)c1cnn(-c2ccc(F)cc2)c1` (configuration not stated) belongs 106%. With `O=C(Nc1nc2c(s1)COc1ccccc1-2)C1COc2ccccc2O1` (configuration not stated), the host macrophage viability turned out to be 112%.

`O=C(/C=C\c1ccc([N+](=O)[O-])cc1)NC1CC(=O)N(c2ccccc2)C1` (configuration not stated): the host macrophage viability was found to be 123%. Turning to `CSc1ncc(C(=O)Nc2ccc(C)c(C)c2)c(=O)n1C`, the host macrophage viability turned out to be 119%.

`CCOC(=O)CNC(=O)CS(=O)(=O)c1cn(CC(=O)N2CCCCCC2)c2ccccc12`: the host macrophage viability amounted to 113%.

`Cc1ccc(OCCCC(=O)Nc2sc3c(c2C(N)=O)CCC(C)C3)c(C)c1` (configuration not stated): the host macrophage viability turned out to be 113%. With `CCc1ccc(S(=O)(=O)c2nnn3c2nc(N2CCC(C(N)=O)CC2)c2cc(Cl)ccc23)cc1`, the host macrophage viability came out at 132%. With `CC(=O)c1cccc(Nc2nc(Nc3ccc(F)c(Cl)c3)nc(N3CCOCC3)n2)c1`, the host macrophage viability is 123%. For `CC(=O)c1ccc(NC(=O)c2sc3nc(C)cc(C)c3c2N)cc1`, the host macrophage viability was 137%. Regarding `Cc1cc(Cl)cc2sc(N(Cc3cccnc3)C(=O)CN3C(=O)CCC3=O)nc12`, the host macrophage viability came out at 102%.

As for `CCCC(=O)Nc1ccc(NC(=O)c2ccncc2)cn1`, the host macrophage viability was 110%. Regarding `COc1ccc(NC(=O)c2cnc(SCC(=O)NCc3ccc4c(c3)OCO4)n(C)c2=O)cc1`, the host macrophage viability is 116%. Turning to `Cc1cccn2c(=O)c(/C=C(\C#N)C(=O)NC3CCCC3)c(Oc3ccccc3F)nc12`, the host macrophage viability turned out to be 114%.

With `CCc1ccc(C2NC(=O)NC3=C2C(=O)CCC3)cc1` (configuration not stated), the host macrophage viability worked out at 110%.

`COc1cc(Nc2ncnc3c(-c4ccccc4)noc23)cc(OC)c1`: the host macrophage viability was determined as 96.5%. Then `Cc1noc2ncnc(NCCN(C)C3CCCCC3)c12`, with 127%; and `CN(Cc1ccccc1)S(=O)(=O)c1ccc(C(=O)Nc2cc(C(F)(F)F)ccc2Cl)cc1`, with 127%. As to `O=C(NCc1ccc(F)cc1)C1CCN(c2ccc3nnc(-c4ccccc4Cl)n3n2)CC1`, the host macrophage viability came out at 127%.

`COc1ccc(C)cc1NC(=O)N1CCC(c2nnc(C(=O)Nc3cccc(F)c3)s2)CC1`: the host macrophage viability was determined as 82.2%. Take `CCCCOc1ccc(C(=O)CSc2nc3c([nH]2)c(=O)n(C)c(=O)n3C)cc1`: the host macrophage viability stood at 121%.

For `CCOC(=O)c1c(NC(=O)c2ccc(N(C)C)cc2)sc2c1CC(C)(C)NC2(C)C`, the host macrophage viability was 140%. As to `COc1cccc(NC(=O)NNC(=O)c2ccc3c(c2)NC(=O)C(C)(C)O3)c1`, the host macrophage viability stood at 102%. As to `COc1ccccc1CNS(=O)(=O)c1cc(-c2ccno2)oc1C`, the host macrophage viability came to 113%. Regarding `CCOC(=O)c1cc(NC(=O)CSc2nnc3cc(C)c4ccccc4n23)cc(C(=O)OCC)c1`, the host macrophage viability came out at 118%. With `C=CCNC(CC(=O)Nc1ccc(O)cc1C)C(=O)O` (configuration not stated), the host macrophage viability worked out at 125%.

Consider `O=C(NCc1c(F)cccc1F)C(=O)Nc1cc(F)ccc1F`, for which the host macrophage viability was found to be 93.6%. For the molecule `O=C(N1CCc2nc(N3CCCC3)[nH]c(=O)c2C1)C1(c2ccc(Cl)cc2)CCC1`, the host macrophage viability was determined as 122%. Then `COc1ccc(NS(=O)(=O)c2cn(C)nc2C)cc1NC(=O)CN1CCCC1`, with 109%; and `Cc1ccc(N(C(=O)c2csnn2)C(C(=O)NC(C)(C)C)c2ccncc2)cc1C` (configuration not stated), with 100%; and `NS(=O)(=O)c1ccc(NC(=O)CN2C(=O)SC(=C3CCCCC3)C2=O)cc1`, with 134%. As for `Cc1cccc(NC(=S)N2CCC(n3c(C)nc4cc(F)ccc43)CC2)c1C`, the host macrophage viability worked out at 108%.
